In assay [1] the target is T1, CsHydr1^Δsp in pGBKT7 (hydrophobin CsHydr1 without its signal peptide) (Colletotrichum siamense).
T1 sequence: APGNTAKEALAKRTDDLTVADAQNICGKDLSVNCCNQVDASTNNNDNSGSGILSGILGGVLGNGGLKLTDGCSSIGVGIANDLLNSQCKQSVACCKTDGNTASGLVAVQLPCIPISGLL
In words: two-hybrid; pGBKT7 and pGADT7 plasmids co-transformed into yeast Y2H; growth on SD/-Trp-Leu-His-Ade plates, 30 °C, 3 d.

In assay [2] the target is His-CsCap20 fusion protein (from pET32a-CsCap20) (Colletotrichum siamense). In words: pull-down; His pull-down of His-CsCap20 with GST-CsHydr1, western blot; as described in ref. 23; both purified. (In general: In western blotting, separated proteins are transferred to a membrane and probed.)

This is an account of results in PMC9502314.

These are yes or no findings as the source states them, for the method shown. Binding can be weak; no strength is given. For some assays here: Tags and fused reporters may be left off the sequences shown.

In the case of “CsCap20 in pGADT7 (lipid droplet-coating protein CsCap20, whole) (Colletotrichum siamense)”, the binding result in assay [1] is given as “binds”.

B1: GST-CsHydr1 fusion protein (from pGEX-6p-CsHydr1^Δsp) (domain or fragment, UniProt A0A6G6VYL3 20-138)
chain: APGNTAKEALAKRTDDLTVADAQNICGKDLSVNCCNQVDASTNNNDNSGSGILSGILGGVLGNGGLKLTDGCSSIGVGIANDLLNSQCKQSVACCKTDGNTASGLVAVQLPCIPISGLL
On to B1, for which, in assay [2], the binding entry is listed as “binds”.
